The text below walks through data of US12527762B2 (priority 2021, dated 2026).

In general, IC50 refers to the concentration that inhibits the measured activity by half. Read a high IC50 as a need for much substance.

This assay relates to ZR-75-1 hormone-positive breast cancer cell line. Briefly: Luminescent cell viability assay (CellTiter glo), subtype-specific breast cancer cell lines. The class given is cell-based. The conditions noted are these: Homo sapiens. Background: In ATP-based viability assays light output follows the ATP content of the culture.

As for `CC/C(=C(\c1ccccc1)c1ccc(OCCN(C)C)cc1)c1ccccc1` [Tamoxifen, reference compound], 9.2 µM corresponded to half-maximal inhibition (IC50). This counts as single-digit micromolar.
